# These are yes or no findings as the source states them, for the method shown. Binding seen in cells or lysates may run through a third protein. A yes stands for co-enrichment or nearness to the bait. Other partners may have been found.
# The chains behind the UniProt entries cited, without tags or fusion partners.
# UniProt G2XEY3: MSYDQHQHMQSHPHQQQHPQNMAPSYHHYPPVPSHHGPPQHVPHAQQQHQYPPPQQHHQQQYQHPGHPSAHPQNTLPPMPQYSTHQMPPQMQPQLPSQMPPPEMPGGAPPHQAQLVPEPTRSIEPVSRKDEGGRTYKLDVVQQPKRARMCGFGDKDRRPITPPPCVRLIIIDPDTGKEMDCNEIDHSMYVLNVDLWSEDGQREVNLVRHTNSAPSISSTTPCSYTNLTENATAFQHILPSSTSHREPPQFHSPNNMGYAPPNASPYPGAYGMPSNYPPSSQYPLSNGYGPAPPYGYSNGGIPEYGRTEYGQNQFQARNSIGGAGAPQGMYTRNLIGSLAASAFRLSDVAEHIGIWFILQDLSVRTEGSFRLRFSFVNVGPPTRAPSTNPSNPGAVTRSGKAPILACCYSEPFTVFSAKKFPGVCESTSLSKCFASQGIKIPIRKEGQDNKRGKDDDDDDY
# UniProt G2X9D1: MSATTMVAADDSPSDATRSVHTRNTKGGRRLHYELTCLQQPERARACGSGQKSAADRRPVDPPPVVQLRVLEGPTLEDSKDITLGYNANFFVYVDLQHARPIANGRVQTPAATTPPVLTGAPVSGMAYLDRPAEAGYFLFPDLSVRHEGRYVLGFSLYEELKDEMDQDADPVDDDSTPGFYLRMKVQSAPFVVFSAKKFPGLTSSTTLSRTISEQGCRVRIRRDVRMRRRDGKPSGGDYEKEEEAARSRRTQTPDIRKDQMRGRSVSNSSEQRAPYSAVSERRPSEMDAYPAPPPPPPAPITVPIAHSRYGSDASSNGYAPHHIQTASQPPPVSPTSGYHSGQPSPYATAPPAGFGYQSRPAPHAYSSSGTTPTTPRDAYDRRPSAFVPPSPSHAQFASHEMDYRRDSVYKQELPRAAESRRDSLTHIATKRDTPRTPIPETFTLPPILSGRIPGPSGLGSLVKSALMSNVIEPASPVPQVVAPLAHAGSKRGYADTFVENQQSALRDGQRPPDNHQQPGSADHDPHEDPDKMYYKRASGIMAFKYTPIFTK
# Target: Vel2-GFP (V. dahliae VelB ortholog Vel2 fused to GFP) (Verticillium dahliae) (UniProt G2XEY3)
# Test: affinity purification with mass spectrometry
row,binding,Molecule
1,binds,"Vel1 (VeA counterpart), V. dahliae, endogenous (from UniProt G2X9D1 1-552)"
2,binds,"Vos1 (VosA counterpart), V. dahliae, endogenous (protein, UniProt G2X5B4 1-296) MAGLANVQSYSGLDSPQDPIISSGDYVLTMCQEPVIGLVAGGKDKDRKPLDPPPVVKLDVSHQRDPAGLFLSNPYNFLTCHLVKVGDHNIETPVPGNKLVGTVVSSLHRLKDKDNQDVAYFVFGDVSVKVEGRFRLVFTLFDMGGQDCTQLASIKSQPFNIFPNKLFPGLNESTYLTRAINDQGVRVRIRKDSRQSQTSKRNKRVAERFNDYMDNTRPQQRQREGLPLGVNYPSSGVGIDNVFGSLAPNMSMNPFPSPAHSSDSGLPSSVSMHGSSGPPADRFPDSGHGLWGRDYS"
